Data on three molecules can be found in paper PMC6038381.

Sequences of proteins named here, by UniProt entry; tags and fusion partners are left off. Residues count along the entry.
UniProt Q9LX66, residues 25-405: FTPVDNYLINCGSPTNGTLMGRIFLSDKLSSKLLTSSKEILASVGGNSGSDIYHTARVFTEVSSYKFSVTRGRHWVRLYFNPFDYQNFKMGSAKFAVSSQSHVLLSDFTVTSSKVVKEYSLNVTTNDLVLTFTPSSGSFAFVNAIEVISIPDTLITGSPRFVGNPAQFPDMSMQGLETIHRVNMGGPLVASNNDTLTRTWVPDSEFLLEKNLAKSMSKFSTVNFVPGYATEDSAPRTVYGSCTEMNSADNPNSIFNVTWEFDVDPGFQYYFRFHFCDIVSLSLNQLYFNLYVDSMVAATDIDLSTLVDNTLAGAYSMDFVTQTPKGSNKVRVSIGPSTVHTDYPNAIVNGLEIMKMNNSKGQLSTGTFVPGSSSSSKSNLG

Holding throughout (experiment): SEC; analytical gel filtration, Superdex 200 Increase 10/300 GL, 20 mM citric acid pH 5.0, 100 mM NaCl; 100 µl of each isolated ectodomain loaded (ANX1, HERK1, THE1 5 mg ml^-1; ANX2 4.5 mg ml^-1), 0.7 ml min^-1; column calibrated with HMW and LMW standards; both purified
In general terms: Size exclusion chromatography separates by hydrodynamic size, large species first.

The target of experiment [1] is Arabidopsis thaliana HERCULES1 (HERK1) ectodomain (residues 1-405) (Arabidopsis thaliana) (UniProt Q9LX66).
In experiment [2] the target is Arabidopsis thaliana ANXUR1 (ANX1) ectodomain (residues 1-429) (Arabidopsis thaliana) (UniProt Q9SR05).
The target in experiment [3] is Arabidopsis thaliana THESEUS1 (THE1) ectodomain (residues 1-403) (Arabidopsis thaliana) (UniProt Q9LK35).

Results are given in words; binding and its absence hold for the method and conditions named.

Regarding “Arabidopsis thaliana HERCULES1 (HERK1) ectodomain (residues 1-405) (from UniProt Q9LX66 25-405) (domain or fragment)”, the binding entry in experiment [1] was “no binding (tested: 5 mg ml^-1 loaded)”.

B1: Arabidopsis thaliana ANXUR1 (ANX1) ectodomain (residues 1-429) (domain or fragment, UniProt Q9SR05 27-429)
chain: QDLALSCGTSEASADQDKKKWEPDTKFLKTGNSIHATATYQDPSLLSTVPYMTARIFTAPATYEIPIKGDKRHLLRLYFYPSTYTGLNISNSYFTVEANDVTLLSNFSAAITCQALTQAYLVKEYSLAPTDKDVLSIKFTPSDKYRDAFAFINGIEVIQMPELFDTAALVGFTDQTMDAKTANLQSMFRLNVGGQDIPGSQDSGGLTRTWYNDAPYIFSAGLGVTLQASNNFRINYQNMPVSIAPADIYKTARSQGPNGDINLKSNLTWMFQIDKNFTYILRLHFCEFQLSKINQKVFNIYINNRTAQADTTPADIIGWTGEKGIPMYKDYAIYVDANNGGEEITLQMTPSTFGQPEYYDSSLNGLEIFKMDTMKNLAGPNPEPSPMQAEEEVKKEFKNEKRH
modifications: N-glycosylated; glycans at Asn132, Asn292 and Asn302
Consider B1, for which the binding entry in experiment [2] is given as “no binding (tested: 5 mg ml^-1 loaded)”.

B2: Arabidopsis thaliana THESEUS1 (THE1) ectodomain (residues 1-403) (domain or fragment, UniProt Q9LK35 23-403)
chain: SALFNPPDNYLISCGSSQNITFQNRIFVPDSLHSSLVLKIGNSSVATSTTSNNSTNSIYQTARVFSSLASYRFKITSLGRHWIRLHFSPINNSTWNLTSASITVVTEDFVLLNNFSFNNFNGSYIFKEYTVNVTSEFLTLSFIPSNNSVVFVNAIEVVSVPDNLIPDQALALNPSTPFSGLSLLAFETVYRLNMGGPLLTSQNDTLGRQWDNDAEYLHVNSSVLVVTANPSSIKYSPSVTQETAPNMVYATADTMGDANVASPSFNVTWVLPVDPDFRYFVRVHFCDIVSQALNTLVFNLYVNDDLALGSLDLSTLTNGLKVPYFKDFISNGSVESSGVLTVSVGPDSQADITNATMNGLEVLKISNEAKSLSGVSSVKSL
modifications: N-glycosylated
B2: the binding entry in experiment [3] is listed as “no binding (tested: 5 mg ml^-1 loaded)”.
